We go through 3 molecules from PMC10166522.

By UniProt entry, the sequences of proteins in these tests, tags left out.
UniProt Q8WQ99: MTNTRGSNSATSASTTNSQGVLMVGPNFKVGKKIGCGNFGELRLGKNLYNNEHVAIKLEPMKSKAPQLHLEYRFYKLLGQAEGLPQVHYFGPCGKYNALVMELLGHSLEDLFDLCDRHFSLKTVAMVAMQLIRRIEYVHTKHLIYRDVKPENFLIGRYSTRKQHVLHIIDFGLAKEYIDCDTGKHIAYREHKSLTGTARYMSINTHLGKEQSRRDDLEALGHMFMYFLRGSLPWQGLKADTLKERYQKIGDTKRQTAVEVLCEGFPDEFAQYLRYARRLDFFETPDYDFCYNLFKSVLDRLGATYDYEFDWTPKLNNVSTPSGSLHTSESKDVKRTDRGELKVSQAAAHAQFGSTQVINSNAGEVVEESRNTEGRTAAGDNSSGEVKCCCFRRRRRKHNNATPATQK
UniProt P78368: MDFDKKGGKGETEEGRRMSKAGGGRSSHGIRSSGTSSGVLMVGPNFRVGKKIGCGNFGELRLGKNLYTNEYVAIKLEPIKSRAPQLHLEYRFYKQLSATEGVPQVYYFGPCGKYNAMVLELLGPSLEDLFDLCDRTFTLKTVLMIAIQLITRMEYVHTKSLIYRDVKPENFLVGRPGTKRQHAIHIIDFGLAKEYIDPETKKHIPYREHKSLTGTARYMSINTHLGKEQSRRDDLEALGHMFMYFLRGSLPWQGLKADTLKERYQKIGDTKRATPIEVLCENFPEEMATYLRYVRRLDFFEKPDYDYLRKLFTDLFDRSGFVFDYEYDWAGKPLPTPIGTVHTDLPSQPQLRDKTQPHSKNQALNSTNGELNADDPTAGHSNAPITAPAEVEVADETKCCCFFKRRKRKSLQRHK

These are yes or no findings as the source states them, for the method shown. Binding seen in cells or lysates may run through a third protein. Some entries that bind do so weakly or less than the wild type. Sequences can lack the tags named with a protein.

In assay [1] the target is T1, DUOXA2::HA fusion protein (human) (UniProt Q1HG44).
T1 sequence: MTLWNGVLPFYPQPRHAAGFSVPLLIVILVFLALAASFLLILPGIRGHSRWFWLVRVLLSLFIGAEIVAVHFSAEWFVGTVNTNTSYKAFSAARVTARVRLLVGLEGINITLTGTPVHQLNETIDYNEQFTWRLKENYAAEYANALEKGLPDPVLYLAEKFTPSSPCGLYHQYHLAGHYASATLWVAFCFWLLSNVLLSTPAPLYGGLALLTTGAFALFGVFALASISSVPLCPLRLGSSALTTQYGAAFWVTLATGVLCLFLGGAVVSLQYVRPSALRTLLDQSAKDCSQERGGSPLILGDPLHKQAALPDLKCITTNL
Description: co-IP; HEK293T cells co-expressing both proteins, lysed in IP buffer; anti-HA antibody and protein A/G beads at 4°C overnight, 5 washes in TBST; blot with anti-FLAG and anti-HA.

Assay [2] deals with T2, DOXA-1::HA fusion protein (C. elegans) (UniProt P34298).
T2 sequence: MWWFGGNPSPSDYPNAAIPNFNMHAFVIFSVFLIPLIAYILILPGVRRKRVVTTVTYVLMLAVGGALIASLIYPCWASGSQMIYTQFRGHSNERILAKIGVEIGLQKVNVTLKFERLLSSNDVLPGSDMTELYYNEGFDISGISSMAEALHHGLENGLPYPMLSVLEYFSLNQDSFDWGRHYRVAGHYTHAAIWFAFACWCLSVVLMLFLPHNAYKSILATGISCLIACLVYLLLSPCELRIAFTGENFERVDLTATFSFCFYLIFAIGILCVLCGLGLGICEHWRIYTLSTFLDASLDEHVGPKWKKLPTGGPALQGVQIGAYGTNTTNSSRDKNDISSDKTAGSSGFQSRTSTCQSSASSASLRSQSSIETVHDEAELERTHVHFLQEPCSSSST
Described as above.

Assay [3] deals with His::TF::CSNK-1 fusion protein (C. elegans) (UniProt Q8WQ99). Description: pull-down; His::TF fusion protein from BL21 held on His-tag resin, incubated at 4°C overnight with the lysate supernatant of transfected HEK293T cells, 3 washes in TBST; Western blot; only the target purified. Background: In western blotting, separated proteins are transferred to a membrane and probed.
Assay [4] concerns the target FLAG::CSNK-1 fusion protein (C. elegans) (UniProt Q8WQ99). Description: co-IP; HEK293T cells co-expressing both proteins, lysed in IP buffer; anti-FLAG antibody and protein A/G beads at 4°C overnight, 5 washes in TBST; blot with anti-HA and anti-FLAG.

As to “FLAG::CSNK1G2 fusion protein (from UniProt P78368 1-415) (enzyme)”, the binding result in assay [1] is “binds”.
With “FLAG::CSNK-1 fusion protein (from UniProt Q8WQ99 1-407) (enzyme)”, in assay [2], the binding result is listed as “binds”.

B1: DOXA-1::HA fusion protein (protein, UniProt P34298 1-397)
chain: MWWFGGNPSPSDYPNAAIPNFNMHAFVIFSVFLIPLIAYILILPGVRRKRVVTTVTYVLMLAVGGALIASLIYPCWASGSQMIYTQFRGHSNERILAKIGVEIGLQKVNVTLKFERLLSSNDVLPGSDMTELYYNEGFDISGISSMAEALHHGLENGLPYPMLSVLEYFSLNQDSFDWGRHYRVAGHYTHAAIWFAFACWCLSVVLMLFLPHNAYKSILATGISCLIACLVYLLLSPCELRIAFTGENFERVDLTATFSFCFYLIFAIGILCVLCGLGLGICEHWRIYTLSTFLDASLDEHVGPKWKKLPTGGPALQGVQIGAYGTNTTNSSRDKNDISSDKTAGSSGFQSRTSTCQSSASSASLRSQSSIETVHDEAELERTHVHFLQEPCSSSST
For B1, the binding entry in assay [3] and in assay [4] was “binds” each time.
